Measured values from PubChem BioAssay AID493014 (National Center for Advancing Translational Sciences (NCATS), 2011).
Several values for one entry are separate records, joined by “and”; a condition that tells them apart may be missing. Equal values may be shown once. The list shows a part of the results. These are further read-outs of the screen, such as a control signal, another cell line or another target. No call is given for them. The list favours compounds with an active or inconclusive main result. Words in brackets tell the shape of the fitted curve; partial curves, single points and poor fits give uncertain potencies.

Test: qHTS Assay to Find Inhibitors of Chronic Active B-Cell Receptor Signaling
Conditions: ABC-DLBCL IkBa-CBG/CBR reporter, luminescence ratio (green luciferase fused to IkBa over red control in TMD8 lymphoma cells), 4 h
Procedure, shortened: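 TMD8 ABC-DLBCL cells carrying doxycycline-inducible green luciferase fused to IkappaBalpha plus unfused red luciferase were exposed to compounds (up to 46 uM) for 4 hrs at 37C. Activity came from the overlap-corrected green/red luminescence ratio.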

[1] = measured here: CBR red luminescence, cell number
[2] = measured here: IkBa-CBG green luminescence

Compound	AC50 [1]	AC50 [2]
C#CCOC(=O)c1ccccc1C(=O)n1nnc2ccccc21	15.8 µM [falling, single point]	
CCCCNc1c(-c2ccc(OC)c(SC3CCCCC3)c2)nc2cc(C)ccn12	18.4 µM [falling, single point]	32.6 µM [rising, partial curve, poor fit]
CN(C1CCCC1)C1CCN(C(=O)CNC(=O)/C=C/c2ccc(F)cc2)CC1	0.92 µM [falling, full curve, poor fit]	
CC(=O)N1CCN(c2ccc(NC(=O)c3ccccc3C)cc2)CC1	11.2 µM [falling, partial curve, poor fit]	
Cc1nnc(-n2ncc(C#N)c2N)c2nn(-c3cccc(Cl)c3)c(C)c12	18.4 µM [rising, single point]	
CCCCOP(=O)(OCCCC)C(O)c1ccc(N(C)C)cc1 (stereo unspecified)	35.5 µM [rising, single point]	
CCC(=O)Nc1ccc(C(=O)NNC(=O)c2ccc(C)cc2)cc1	15.8 µM [rising, partial curve, poor fit]	
OC(CN=c1sc2ccccc2n1CC(O)COc1ccccc1)COc1ccccc1 (stereo unspecified)	20.6 µM [falling, partial curve]	
O=C(NCc1ccco1)Nc1ccc2snnc2c1	35.5 µM [falling, single point]	
O=[N+]([O-])c1cc(S(=O)(=O)NCCN2CCOCC2)ccc1Cl	10 µM [falling, single point]	
CC1CCN(S(=O)(=O)c2ccc(C(=O)N3CCN(c4ccccc4F)CC3)cc2)CC1	28.2 µM [falling, single point]	
Cn1nc(C(=O)OCc2ccc(F)cc2)c2ccccc2c1=O	11.2 µM [rising, partial curve, poor fit]	
CCOC(=O)C1(CCOc2ccccc2)CCN(Cc2ccc(OC)c(O)c2)CC1	11.2 µM [falling, partial curve, poor fit]	
Cc1ccccc1CNc1ccc(C(CC(N)=O)NC(=O)c2ccccc2)cc1[N+](=O)[O-] (stereo unspecified)	35.5 µM [falling, single point]	
CCOc1c(C)cc(-c2ncccc2O)cc1C	461 nM [rising, full curve, poor fit] and 11.2 µM [rising, partial curve]	
Cc1cccnc1NC(=S)Nc1ncccc1C	3.16 µM [rising, partial curve, poor fit]	
Oc1ccc(-c2cn3ccccc3n2)cc1O	6.31 µM [rising, single point]	
COC(=O)c1ccccc1NC(=O)CSc1nncn1-c1cccnc1	35.5 µM [falling, single point]	
Cc1ccc(OCCCn2cc(C#N)c3ccccc32)cc1	32.6 µM [rising, single point]	
COc1ccc(C(=O)NCC(=O)OCCOc2ccc(Cl)cc2)cc1OC	4.61 µM [rising, partial curve, poor fit]	
COc1ccc(OC)c(NC(=O)NCCc2c[nH]c3ccccc23)c1	11.2 µM [falling, partial curve]	

Compound	AC50 [1]	AC50 [2]
O=C(O)Cn1cc(/C=C2/NC(=O)N(c3ccc(Cl)cc3)C2=O)c2ccccc21	12.6 µM [falling, single point]	
C/C(=N/NC(=O)c1cccc(C)c1)c1c(O)cc(C)oc1=O	9.2 µM [falling, partial curve]	
O=C(Nc1cccc(C(F)(F)F)c1)c1cnccn1	35.5 µM [rising, single point]	
CCN(CC)S(=O)(=O)c1ccc(N2CCOCC2)c(NC(=O)c2ccc3c(c2)OCCO3)c1	2.91 µM [rising, full curve, poor fit]	
COc1ccc(CCNC(=O)C2CCC(CNS(=O)(=O)c3ccc(C)cc3)CC2)cc1OC (stereo unspecified)	3.98 µM [rising, partial curve, poor fit]	
Cc1cccc2c(=O)c(C(=O)N3CCCCCC3)c[nH]c12	3.55 µM [rising, single point]	
CS(=O)(=O)C1=NSC2=NC(=O)/C(=C\c3ccc(-c4ccccc4)o3)C(=N)N21	14.6 µM [falling, partial curve]	
COc1ccc(N=C(C)C2=C(O)c3ccccc3C2=O)cc1	0.206 µM [rising, full curve, poor fit]	
CC(C)CCn1cnc2c(NCc3ccccc3)ncnc21	29.1 µM [falling, single point]	
COc1ccc(CCN(C(=O)c2ccco2)C(C(=O)NC2CCCC2)c2ccncc2)cc1OC (stereo unspecified)	35.5 µM [falling, single point]	
CC(C)c1ccc2oc(-c3ccc(NC(=O)c4ncn[nH]4)cc3)nc2c1	1.03 µM [falling, full curve, poor fit]	
CCOc1ccc(C(=O)N2CCN(Cc3ccccc3)CC2)cc1	17.8 µM [falling, partial curve, poor fit]	
COc1cc(CNCCCN2CCOCC2)c(Br)cc1OCC(=O)Nc1ccccc1C	15.8 µM [falling, single point]	
Fc1ccccc1COc1ccc(Br)cc1CNCc1cccnc1	25.1 µM [falling, single point]	
Cc1ccc(NC(=O)C(C)SCc2nc3sc(C)c(C)c3c(=O)[nH]2)nc1 (stereo unspecified)	20.6 µM [rising, single point]	
Cc1cc(NC(=O)c2cccc(C(=O)Nc3cc(C)on3)n2)no1	6.51 µM [falling, single point]	
Cn1c(=O)[nH]c2ncccc21	35.5 µM [falling, single point]	
O=C(NCc1cccs1)Nc1ccc(Cl)cc1	13 µM [falling, partial curve, poor fit]	
CC(C)c1nc(CNC(=O)CCc2nnc(-c3ccsc3)o2)cs1	10 µM [rising, partial curve, poor fit]	
Cc1cc(/C=c2/sc3nc4ccccc4n3c2=O)c(C)n1-c1ccccn1	3.98 µM [rising, partial curve, poor fit]	
CCCCC(=O)NNC(=S)NC(=O)c1ccc([N+](=O)[O-])cc1	14.1 µM [rising, single point]	

Compound	AC50 [1]	AC50 [2]
COc1ccc(CNC(=O)CN(Cc2ccc(Cl)cc2)S(=O)(=O)c2ccccc2)cc1	29.1 µM [falling, single point]	
O=C(Nc1ccon1)c1cc(-c2ccccc2)nc2ccccc12	8.2 µM [falling, partial curve]	2.91 µM [rising, full curve, poor fit]
O=C(c1ccc(COc2ccccc2[N+](=O)[O-])o1)N1CCCCC1	15.8 µM [rising, partial curve, poor fit]	
COc1cccc(NC(=O)CN2C(=O)NC(C)(CCC(C)C)C2=O)c1 (stereo unspecified)	14.1 µM [falling, partial curve]	
CCC1(c2ccccc2)NC(=O)N(CC(=O)NCCN2C(=O)S/C(=C\c3cccnc3)C2=O)C1=O (stereo unspecified)	29.1 µM [falling, single point]	
COc1ccc(C(=O)Nc2ccc(N3CCN(C(=O)c4cccs4)CC3)cc2)cc1Br	35.5 µM [falling, single point]	
CCc1nnc(NC(=O)CN2CCN(S(C)(=O)=O)CC2)s1	14.1 µM [rising, partial curve, poor fit]	
CCOc1cc(NC(=S)NC)c(OCC)cc1NC(=O)c1ccc(OC)cc1	22.4 µM [rising, single point]	
O=C(CSc1cccs1)Nc1ccc(Cl)cc1	0.447 µM [rising, full curve, poor fit]	
CCOC(=O)c1c(C)n(C)c2ccc(O)c(CN3CCCCC3)c12	6.51 µM [falling, partial curve, poor fit]	
COC(=O)c1cc2c([nH]c3ccccc32)c(C)n1	5.62 µM [falling, partial curve, poor fit]	
Cc1ccc(C(=O)N/C(=C/c2ccc(-c3cccc([N+](=O)[O-])c3)o2)C(=O)NCCCN(C)C)cc1	22.4 µM [falling, single point]	
O=C(O)c1ccc(-n2nnnc2SCc2cccc(Br)c2)cc1	0.794 µM [rising, full curve, poor fit]	
CCc1ccc(/C=N/NC(=O)c2cc(-c3cccc([N+](=O)[O-])c3)n[nH]2)cc1	17.8 µM [rising, partial curve]	10 µM [falling, partial curve, poor fit]
COc1ccccc1/C=C1/SC(=S)N(C(C)C(=O)NC2C=CS(=O)(=O)C2)C1=O (stereo unspecified)	35.5 µM [falling, single point]	
C=CCn1c(SCCN2CCCCC2)nc2c1c(=O)[nH]c(=O)n2C	32.6 µM [rising, single point]	
O=C(COC(=O)c1cc(NS(=O)(=O)c2cccs2)ccc1O)Nc1ccc(F)c(F)c1F	35.5 µM [falling, single point]	
Cc1ccc(NC(=O)C/C(N)=N/O)cc1Cl	14.1 µM [rising, single point]	
Cc1ccc(-c2cc(C(=O)NCc3ccco3)no2)cc1	2.59 µM [falling, full curve, poor fit]	
COc1ccc(C(=O)CSc2nnc(CNc3ccc(F)cc3)o2)cc1	35.5 µM [rising, partial curve, poor fit]	
O=C(N/N=C/c1ccc2c(c1)OCO2)c1cc(-c2ccccc2Cl)nc2ccccc12	3.66 µM [rising, single point]	

3 of the compounds above, with bars between the fields:
Compound | AC50 [1] | AC50 [2]
CCOc1cc(NC(=S)NC)c(OCC)cc1NC(=O)c1ccc(OC)cc1 | 22.4 µM [rising, single point] | 
COc1ccccc1/C=C1/SC(=S)N(C(C)C(=O)NC2C=CS(=O)(=O)C2)C1=O (stereo unspecified) | 35.5 µM [falling, single point] | 
O=C(COC(=O)c1cc(NS(=O)(=O)c2cccs2)ccc1O)Nc1ccc(F)c(F)c1F | 35.5 µM [falling, single point] | 
